# Experimental data taken from the supplement of paper PMC11732987, “Enantioselective OTUD7B fragment discovery through chemoproteomics screening and high-throughput optimisation” (Communications Chemistry, 2025).
# The chains behind the UniProt entries cited, without tags or fusion partners. Where a name states a change or a piece, a line headed by the entry shows the natural chain unless it says otherwise. Residues count along the entry.
# UniProt P52732: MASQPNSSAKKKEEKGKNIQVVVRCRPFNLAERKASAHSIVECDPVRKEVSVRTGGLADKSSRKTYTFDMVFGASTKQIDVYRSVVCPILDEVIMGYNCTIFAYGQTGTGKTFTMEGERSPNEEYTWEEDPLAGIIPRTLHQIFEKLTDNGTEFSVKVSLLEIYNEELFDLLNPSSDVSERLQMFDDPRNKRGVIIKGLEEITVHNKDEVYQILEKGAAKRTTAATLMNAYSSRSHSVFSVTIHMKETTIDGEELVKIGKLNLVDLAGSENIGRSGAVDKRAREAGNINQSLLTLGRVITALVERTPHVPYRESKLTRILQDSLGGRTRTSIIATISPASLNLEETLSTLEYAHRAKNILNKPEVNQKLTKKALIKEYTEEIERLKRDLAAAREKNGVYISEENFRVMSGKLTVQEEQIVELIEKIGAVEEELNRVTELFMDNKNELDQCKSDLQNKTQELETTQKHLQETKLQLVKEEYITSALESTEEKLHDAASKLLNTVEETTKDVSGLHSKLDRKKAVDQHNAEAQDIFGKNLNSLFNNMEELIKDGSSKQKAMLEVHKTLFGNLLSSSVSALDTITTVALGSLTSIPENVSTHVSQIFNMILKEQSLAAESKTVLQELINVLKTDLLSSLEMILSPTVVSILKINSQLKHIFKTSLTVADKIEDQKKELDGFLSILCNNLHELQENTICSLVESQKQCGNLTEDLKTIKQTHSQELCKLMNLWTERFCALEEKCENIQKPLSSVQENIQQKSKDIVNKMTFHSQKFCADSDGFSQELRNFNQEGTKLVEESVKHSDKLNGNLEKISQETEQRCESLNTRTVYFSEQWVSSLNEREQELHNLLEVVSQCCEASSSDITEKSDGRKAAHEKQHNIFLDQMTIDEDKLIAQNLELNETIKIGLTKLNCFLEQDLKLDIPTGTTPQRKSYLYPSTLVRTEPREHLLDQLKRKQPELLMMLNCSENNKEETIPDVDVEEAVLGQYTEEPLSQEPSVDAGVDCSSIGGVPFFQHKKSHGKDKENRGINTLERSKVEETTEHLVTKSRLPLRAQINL
# UniProt Q14571: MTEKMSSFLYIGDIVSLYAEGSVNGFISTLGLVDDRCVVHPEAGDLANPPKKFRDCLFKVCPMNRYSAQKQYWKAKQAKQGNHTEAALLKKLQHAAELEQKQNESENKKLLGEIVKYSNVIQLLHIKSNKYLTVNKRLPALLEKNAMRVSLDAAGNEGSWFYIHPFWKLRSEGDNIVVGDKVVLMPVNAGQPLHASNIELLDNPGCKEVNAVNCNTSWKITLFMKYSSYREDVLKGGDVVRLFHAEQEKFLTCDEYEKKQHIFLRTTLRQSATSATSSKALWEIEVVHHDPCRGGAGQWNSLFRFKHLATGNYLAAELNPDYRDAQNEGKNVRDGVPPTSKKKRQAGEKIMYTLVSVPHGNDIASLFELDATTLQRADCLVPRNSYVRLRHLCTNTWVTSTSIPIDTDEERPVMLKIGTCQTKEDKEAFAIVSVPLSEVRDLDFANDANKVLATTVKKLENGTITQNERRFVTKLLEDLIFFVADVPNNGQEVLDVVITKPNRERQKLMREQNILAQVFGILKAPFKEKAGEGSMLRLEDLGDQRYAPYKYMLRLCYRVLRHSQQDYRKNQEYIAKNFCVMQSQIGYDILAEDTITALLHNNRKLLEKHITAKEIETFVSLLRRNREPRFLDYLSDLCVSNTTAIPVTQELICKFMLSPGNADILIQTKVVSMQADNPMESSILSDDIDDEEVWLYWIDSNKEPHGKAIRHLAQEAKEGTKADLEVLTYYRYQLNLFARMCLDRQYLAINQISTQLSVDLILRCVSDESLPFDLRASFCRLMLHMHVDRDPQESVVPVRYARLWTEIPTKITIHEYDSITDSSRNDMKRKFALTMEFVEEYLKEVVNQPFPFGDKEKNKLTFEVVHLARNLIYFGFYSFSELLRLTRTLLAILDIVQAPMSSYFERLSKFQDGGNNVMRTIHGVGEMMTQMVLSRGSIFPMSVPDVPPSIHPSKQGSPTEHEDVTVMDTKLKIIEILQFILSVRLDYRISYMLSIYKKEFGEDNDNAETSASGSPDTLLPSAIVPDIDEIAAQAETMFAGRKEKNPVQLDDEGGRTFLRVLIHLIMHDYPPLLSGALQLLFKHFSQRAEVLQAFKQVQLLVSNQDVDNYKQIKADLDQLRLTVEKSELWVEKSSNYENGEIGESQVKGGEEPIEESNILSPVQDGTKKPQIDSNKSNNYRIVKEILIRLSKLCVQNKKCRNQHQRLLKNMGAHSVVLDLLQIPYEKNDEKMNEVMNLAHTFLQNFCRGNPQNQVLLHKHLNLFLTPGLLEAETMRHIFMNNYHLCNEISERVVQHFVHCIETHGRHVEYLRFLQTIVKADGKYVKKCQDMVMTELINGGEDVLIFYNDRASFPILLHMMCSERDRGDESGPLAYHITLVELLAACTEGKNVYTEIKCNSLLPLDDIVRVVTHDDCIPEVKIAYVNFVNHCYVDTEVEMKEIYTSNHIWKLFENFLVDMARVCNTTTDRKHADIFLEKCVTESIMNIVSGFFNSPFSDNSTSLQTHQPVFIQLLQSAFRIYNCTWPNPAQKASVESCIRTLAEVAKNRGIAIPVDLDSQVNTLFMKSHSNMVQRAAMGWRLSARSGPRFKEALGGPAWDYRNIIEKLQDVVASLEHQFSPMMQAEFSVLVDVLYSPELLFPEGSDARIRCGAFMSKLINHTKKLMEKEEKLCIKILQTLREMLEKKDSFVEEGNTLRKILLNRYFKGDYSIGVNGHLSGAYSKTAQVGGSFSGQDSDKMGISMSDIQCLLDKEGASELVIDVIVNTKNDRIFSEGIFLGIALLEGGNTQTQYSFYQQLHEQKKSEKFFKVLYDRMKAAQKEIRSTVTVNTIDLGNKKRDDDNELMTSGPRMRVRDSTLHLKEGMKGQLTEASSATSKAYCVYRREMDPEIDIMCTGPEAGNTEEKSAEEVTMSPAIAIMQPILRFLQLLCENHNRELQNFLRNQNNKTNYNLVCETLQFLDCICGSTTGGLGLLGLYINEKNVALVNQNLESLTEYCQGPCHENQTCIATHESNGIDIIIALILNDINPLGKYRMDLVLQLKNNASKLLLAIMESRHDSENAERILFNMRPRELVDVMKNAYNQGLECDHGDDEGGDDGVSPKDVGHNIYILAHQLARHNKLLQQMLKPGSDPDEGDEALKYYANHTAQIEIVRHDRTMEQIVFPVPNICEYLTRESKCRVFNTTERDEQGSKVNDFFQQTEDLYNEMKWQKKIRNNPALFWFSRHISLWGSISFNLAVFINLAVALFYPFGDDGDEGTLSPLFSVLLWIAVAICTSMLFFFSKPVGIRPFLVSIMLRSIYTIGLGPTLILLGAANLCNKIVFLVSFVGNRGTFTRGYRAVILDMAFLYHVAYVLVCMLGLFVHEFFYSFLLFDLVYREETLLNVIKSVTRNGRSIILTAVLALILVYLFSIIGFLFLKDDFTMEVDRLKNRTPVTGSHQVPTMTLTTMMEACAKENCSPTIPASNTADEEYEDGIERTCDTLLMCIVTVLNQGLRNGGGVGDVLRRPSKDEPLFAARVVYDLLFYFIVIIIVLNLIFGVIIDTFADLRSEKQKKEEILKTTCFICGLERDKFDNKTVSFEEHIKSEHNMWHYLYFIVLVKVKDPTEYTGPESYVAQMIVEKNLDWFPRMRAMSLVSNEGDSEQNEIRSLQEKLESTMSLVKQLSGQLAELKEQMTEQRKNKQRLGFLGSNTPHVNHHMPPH
# UniProt Q8IYS2: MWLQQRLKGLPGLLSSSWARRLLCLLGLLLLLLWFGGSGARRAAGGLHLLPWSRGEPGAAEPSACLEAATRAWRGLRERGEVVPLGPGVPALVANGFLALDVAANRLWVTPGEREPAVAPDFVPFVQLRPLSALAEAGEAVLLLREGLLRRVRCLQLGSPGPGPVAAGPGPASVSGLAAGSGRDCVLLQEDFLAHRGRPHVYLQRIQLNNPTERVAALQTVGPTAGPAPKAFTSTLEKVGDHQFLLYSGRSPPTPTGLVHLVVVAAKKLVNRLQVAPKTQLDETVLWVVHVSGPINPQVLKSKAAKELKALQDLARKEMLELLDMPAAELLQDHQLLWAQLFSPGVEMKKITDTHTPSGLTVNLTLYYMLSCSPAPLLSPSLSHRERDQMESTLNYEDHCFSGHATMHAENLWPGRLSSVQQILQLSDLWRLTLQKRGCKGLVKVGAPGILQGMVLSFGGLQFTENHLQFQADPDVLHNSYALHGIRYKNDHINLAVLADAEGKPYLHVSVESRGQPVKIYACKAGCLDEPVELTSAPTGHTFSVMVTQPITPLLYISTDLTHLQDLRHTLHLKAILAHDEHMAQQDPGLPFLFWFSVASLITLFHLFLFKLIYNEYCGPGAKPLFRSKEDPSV
# UniProt O43896: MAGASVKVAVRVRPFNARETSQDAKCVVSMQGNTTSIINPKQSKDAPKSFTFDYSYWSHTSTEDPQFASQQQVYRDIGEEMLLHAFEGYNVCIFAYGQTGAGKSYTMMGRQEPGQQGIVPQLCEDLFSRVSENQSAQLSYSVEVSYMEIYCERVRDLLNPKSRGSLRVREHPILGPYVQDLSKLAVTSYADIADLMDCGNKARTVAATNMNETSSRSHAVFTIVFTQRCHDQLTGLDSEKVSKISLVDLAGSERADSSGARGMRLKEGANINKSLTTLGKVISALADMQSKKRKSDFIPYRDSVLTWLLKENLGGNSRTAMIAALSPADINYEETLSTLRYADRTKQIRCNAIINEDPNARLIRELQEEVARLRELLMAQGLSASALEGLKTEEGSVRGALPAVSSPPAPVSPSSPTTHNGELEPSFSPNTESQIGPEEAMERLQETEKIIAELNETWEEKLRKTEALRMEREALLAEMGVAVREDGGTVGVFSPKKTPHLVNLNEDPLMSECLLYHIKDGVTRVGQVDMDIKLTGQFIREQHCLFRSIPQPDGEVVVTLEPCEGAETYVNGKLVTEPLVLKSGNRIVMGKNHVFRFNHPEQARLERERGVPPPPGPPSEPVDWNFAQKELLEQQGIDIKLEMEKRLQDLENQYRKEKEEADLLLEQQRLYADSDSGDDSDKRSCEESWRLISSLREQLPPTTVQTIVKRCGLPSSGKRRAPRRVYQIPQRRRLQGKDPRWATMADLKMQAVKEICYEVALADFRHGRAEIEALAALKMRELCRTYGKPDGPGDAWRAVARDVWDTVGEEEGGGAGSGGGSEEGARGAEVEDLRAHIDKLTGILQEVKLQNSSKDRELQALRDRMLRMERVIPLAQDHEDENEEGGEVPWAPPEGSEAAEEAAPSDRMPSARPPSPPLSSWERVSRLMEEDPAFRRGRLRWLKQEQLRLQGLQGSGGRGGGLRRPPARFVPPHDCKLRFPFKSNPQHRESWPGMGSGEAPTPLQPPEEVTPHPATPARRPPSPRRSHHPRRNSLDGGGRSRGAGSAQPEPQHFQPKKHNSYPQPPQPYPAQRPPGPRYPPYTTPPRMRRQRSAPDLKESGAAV
# UniProt Q9Y6Y0: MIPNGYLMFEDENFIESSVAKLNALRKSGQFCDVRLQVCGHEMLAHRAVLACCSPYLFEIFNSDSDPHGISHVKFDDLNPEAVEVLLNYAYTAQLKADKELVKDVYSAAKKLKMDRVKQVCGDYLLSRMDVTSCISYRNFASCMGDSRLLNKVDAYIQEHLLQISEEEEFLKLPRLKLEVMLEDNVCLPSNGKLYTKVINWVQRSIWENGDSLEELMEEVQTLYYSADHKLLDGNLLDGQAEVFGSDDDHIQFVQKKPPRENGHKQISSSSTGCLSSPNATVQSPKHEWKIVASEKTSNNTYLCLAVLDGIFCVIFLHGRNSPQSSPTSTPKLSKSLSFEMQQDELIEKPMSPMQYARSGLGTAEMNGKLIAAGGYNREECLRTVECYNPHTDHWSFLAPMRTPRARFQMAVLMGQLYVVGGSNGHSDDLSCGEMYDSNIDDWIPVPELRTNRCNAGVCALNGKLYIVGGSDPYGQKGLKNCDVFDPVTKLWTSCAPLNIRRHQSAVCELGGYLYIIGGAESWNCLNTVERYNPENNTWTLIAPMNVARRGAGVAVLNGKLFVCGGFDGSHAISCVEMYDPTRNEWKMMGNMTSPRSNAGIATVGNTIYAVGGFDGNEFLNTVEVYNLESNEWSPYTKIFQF
# UniProt Q99661, 587-622: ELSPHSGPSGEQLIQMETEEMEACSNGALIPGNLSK
# UniProt Q9H1H9, 26-45: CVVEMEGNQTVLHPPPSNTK
# This is one part of the list. The data scatter; read single values as rough.
# Legend:
# [1] = compound: ClCC(=O)N[C@@H]1CCCc2ccccc12; experiment: log2 mean competition ratio of IA-DTB cysteine labelling (DMSO/compound) (log2 ratio); higher = stronger cysteine engagement by compound; conditions: treatment time: 4 h, cell line lysate: HEK293T
# Procedure: (§1)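 IA-DTB competitive cysteine chemoproteomics in HEK293T RIPA lysate. Lysates were treated with compound 29 or 30 at 50 or 200 µM for 4 h, then IA-DTB (500 µM, 1 h), trypsin-digested, NeutrAvidin-enriched and analysed by diaPASEF. Competition ratio = intensity DMSO / intensity compound (n=4 treated, n=64 DMSO); binding: mean log2 CR ≥ 1 and p ≤ 0.05 plus QC filters. Target is the cysteine site.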
# [2] = compound: ClCC(=O)N[C@H]1CCCc2ccccc12; experiment: as above; conditions: treatment time: 4 h, cell line lysate: HEK293T
# Procedure: as §1
target,measurement,setting,value
KDM8 C164 (UniProt Q8N371),log2 mean competition ratio,[1]; 50 µM,-0.176
same,log2 mean competition ratio,[1]; 200 µM,0.107
same,log2 mean competition ratio,[2]; 50 µM,0.0752
same,log2 mean competition ratio,[2]; 200 µM,0.0835
KIF24 C1154,log2 mean competition ratio,[1]; 50 µM,-0.154
same,log2 mean competition ratio,[1]; 200 µM,0.356
same,log2 mean competition ratio,[2]; 50 µM,-0.0348
same,log2 mean competition ratio,[2]; 200 µM,0.221
KIF11 C704 (UniProt P52732),log2 mean competition ratio,[1]; 50 µM,-0.215
same,log2 mean competition ratio,[1]; 200 µM,0.0801
same,log2 mean competition ratio,[2]; 50 µM,-0.279
same,log2 mean competition ratio,[2]; 200 µM,0.00156
KIAA1107 C252,log2 mean competition ratio,[1]; 50 µM,-0.0541
same,log2 mean competition ratio,[1]; 200 µM,-0.0145
same,log2 mean competition ratio,[2]; 50 µM,-0.0496
same,log2 mean competition ratio,[2]; 200 µM,0.291
KIAA1522 C804 (UniProt Q9P206),log2 mean competition ratio,[1]; 50 µM,-0.0835
same,log2 mean competition ratio,[1]; 200 µM,0.469
same,log2 mean competition ratio,[2]; 50 µM,-0.174
same,log2 mean competition ratio,[2]; 200 µM,0.391
ITPR2 C1415 (UniProt Q14571),log2 mean competition ratio,[1]; 50 µM,-0.194
same,log2 mean competition ratio,[1]; 200 µM,-0.0451
same,log2 mean competition ratio,[2]; 50 µM,-0.421
same,log2 mean competition ratio,[2]; 200 µM,-0.131
IRS4 C545,log2 mean competition ratio,[1]; 50 µM,-0.149
same,log2 mean competition ratio,[1]; 200 µM,0.696
same,log2 mean competition ratio,[2]; 50 µM,-0.307
same,log2 mean competition ratio,[2]; 200 µM,0.535
KIAA2013 C185 (UniProt Q8IYS2),log2 mean competition ratio,[1]; 50 µM,-0.0597
same,log2 mean competition ratio,[1]; 200 µM,0.339
same,log2 mean competition ratio,[2]; 50 µM,-0.358
same,log2 mean competition ratio,[2]; 200 µM,0.162
KIF1C C711 (UniProt O43896),log2 mean competition ratio,[1]; 50 µM,0.0786
same,log2 mean competition ratio,[1]; 200 µM,0.0175
same,log2 mean competition ratio,[2]; 50 µM,0.0556
same,log2 mean competition ratio,[2]; 200 µM,0.0852
KIF18A C9,log2 mean competition ratio,[1]; 50 µM,-0.0989
same,log2 mean competition ratio,[1]; 200 µM,-0.0564
same,log2 mean competition ratio,[2]; 50 µM,-0.365
same,log2 mean competition ratio,[2]; 200 µM,-0.114
KDM5C C707 (UniProt P41229),log2 mean competition ratio,[1]; 50 µM,-0.373
same,log2 mean competition ratio,[1]; 200 µM,0.119
same,log2 mean competition ratio,[2]; 50 µM,-0.317
same,log2 mean competition ratio,[2]; 200 µM,0.109
IVNS1ABP C134 (UniProt Q9Y6Y0),log2 mean competition ratio,[1]; 50 µM,-0.209
same,log2 mean competition ratio,[1]; 200 µM,-0.0623
same,log2 mean competition ratio,[2]; 50 µM,0.315
same,log2 mean competition ratio,[2]; 200 µM,-0.2
KIF2C C610 (UniProt Q99661),log2 mean competition ratio,[1]; 50 µM,-0.0458
same,log2 mean competition ratio,[1]; 200 µM,-0.322
same,log2 mean competition ratio,[2]; 50 µM,0.037
same,log2 mean competition ratio,[2]; 200 µM,-0.7
IRF2BPL C445 (UniProt Q9H1B7),log2 mean competition ratio,[1]; 50 µM,-0.205
same,log2 mean competition ratio,[1]; 200 µM,0.0972
same,log2 mean competition ratio,[2]; 50 µM,-0.0263
same,log2 mean competition ratio,[2]; 200 µM,0.0936
KIF13A C26 (UniProt Q9H1H9),log2 mean competition ratio,[1]; 50 µM,-0.0636
same,log2 mean competition ratio,[1]; 200 µM,0.346
same,log2 mean competition ratio,[2]; 50 µM,0.0992
same,log2 mean competition ratio,[2]; 200 µM,0.0101

# Reformatted: results already given
target	measurement	setting	value
KIAA2013 C185 (UniProt Q8IYS2)	log2 mean competition ratio	[2]; 50 µM	-0.358
KIF2C C610 (UniProt Q99661)	log2 mean competition ratio	[1]; 50 µM	-0.0458
